Record: PubChem BioAssay AID1224826 (NIAID, 2016)
Here is one part, drawn at random, of about 17,000 reagents. In the full data, about 1,110 (6.6%) are marked active. 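Active means lowered or raised reporter signal; replicate intensities are raw and not normalised per plate.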 Further read-outs or replicates are left out here.

- Purpose: 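Genes that change LPS-induced Tnf promoter activity in mouse macrophages when knocked down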 (primary screen)
- Cell system: RAW264.7 G9 macrophages from mouse bearing reporters for p65 (GFP) and the Tnf promoter (mCherry)
- Reagent: siRNA pool against mouse genes, 100 nM
- Duration: 16 h of LPS stimulation, after 2 days of siRNA transfection
- Treatment: bacterial lipopolysaccharide (Salmonella minnesota R595), 10 ng/ml
- Measured: 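Imaged Tnf reporter mCherry in nuclei, minus background, normalised per plate to the median and expressed as robust z-scores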
- Scale: Tnf reporter robust z-score: higher = stronger Tnf promoter reporter signal after LPS
- Call rule: 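Called active when robust z-score is at most -1.3, matching the median of the Tlr4 knock-down control, or over 3; control wells and wells with under 50 cells never active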
- Calls: active = Tnf reporter clearly lowered or raised; inactive = no clear change in Tnf reporter

Target gene | Tnf reporter robust z-score | fewer than 50 cells in well | call
Magoh (mago homolog, exon junction complex core component) | -0.31 | enough cells in well | inactive
Stk32b (serine/threonine kinase 32B) | – | fewer than 50 cells per well; well left out of calls | inactive
Ccnb2 (cyclin B2) | 0.05 | enough cells in well | inactive
Trappc12 (trafficking protein particle complex 12) | -0.2 | enough cells in well | inactive
Ago3 (argonaute RISC catalytic subunit 3) | -0.61 | enough cells in well | inactive
Pex5l (peroxisomal biogenesis factor 5-like) | -1.04 | enough cells in well | inactive
Tarbp2 (TARBP2, RISC loading complex RNA binding subunit) | -0.75 | enough cells in well | inactive
Sval2 (seminal vesicle antigen-like 2) | 2.41 | enough cells in well | inactive
Parp14 (poly (ADP-ribose) polymerase family, member 14) | 0.52 | enough cells in well | inactive
Myoc (myocilin) | 0.41 | enough cells in well | inactive
Tjp2 (tight junction protein 2) | 1.86 | enough cells in well | inactive
Zfp687 (zinc finger protein 687) | – | fewer than 50 cells per well; well left out of calls | inactive
Hapln2 (hyaluronan and proteoglycan link protein 2) | 2.02 | enough cells in well | inactive
Cnksr1 (connector enhancer of kinase suppressor of Ras 1) | 2.72 | enough cells in well | inactive
Or5p67 (olfactory receptor family 5 subfamily P member 67) | – | fewer than 50 cells per well; well left out of calls | inactive
Vmn1r21 (vomeronasal 1 receptor 21) | 0.56 | enough cells in well | inactive
Nox4 (NADPH oxidase 4) | 0.78 | enough cells in well | inactive
Dhx29 (DExH-box helicase 29) | -0.7 | enough cells in well | inactive
Zdhhc13 (zinc finger, DHHC domain containing 13) | – | fewer than 50 cells per well; well left out of calls | inactive
Chst2 (carbohydrate sulfotransferase 2) | -0.38 | enough cells in well | inactive
Nr0b2 (nuclear receptor subfamily 0, group B, member 2) | 0.06 | enough cells in well | inactive
Rnf146 (ring finger protein 146) | -1.79 | enough cells in well | active
Gad2 (glutamic acid decarboxylase 2) | -0.07 | enough cells in well | inactive
Rad51b (RAD51 paralog B) | -0.28 | enough cells in well | inactive
Or8b1d (olfactory receptor family 8 subfamily B member 1D) | – | fewer than 50 cells per well; well left out of calls | inactive
Rcor2 (REST corepressor 2) | 2.21 | enough cells in well | inactive
Il18bp (interleukin 18 binding protein) | -0.71 | enough cells in well | inactive
Garre1 (granule associated Rac and RHOG effector 1) | – | fewer than 50 cells per well; well left out of calls | inactive
Wdfy1 (WD repeat and FYVE domain containing 1) | 2.86 | enough cells in well | inactive
Pax3 (paired box 3) | 0.11 | enough cells in well | inactive
Zmpste24 (zinc metallopeptidase, STE24) | 0.85 | enough cells in well | inactive
Rcc1l (reculator of chromosome condensation 1 like) | -0.71 | enough cells in well | inactive
Aif1 (allograft inflammatory factor 1) | -0.34 | enough cells in well | inactive
Dpysl3 (dihydropyrimidinase-like 3) | -0.79 | enough cells in well | inactive
Zfp280c (zinc finger protein 280C) | 1.25 | enough cells in well | inactive
Cavin4 (caveolae associated 4) | – | fewer than 50 cells per well; well left out of calls | inactive
Myo1h (myosin 1H) | -0.77 | enough cells in well | inactive
Ehmt1 (euchromatic histone methyltransferase 1) | 0.11 | enough cells in well | inactive
BC005624 (cDNA sequence BC005624) | 0.55 | enough cells in well | inactive

Records listed above with an active call, once more:
Target gene | Tnf reporter robust z-score | fewer than 50 cells in well | call
Rnf146 (ring finger protein 146) | -1.79 | enough cells in well | active

Additional results follow:
Target gene | Tnf reporter robust z-score | fewer than 50 cells in well | call
Stub1 (STIP1 homology and U-Box containing protein 1) | -0.64 | enough cells in well | inactive
Ibtk (inhibitor of Bruton agammaglobulinemia tyrosine kinase) | – | fewer than 50 cells per well; well left out of calls | inactive
Ap3d1 (adaptor-related protein complex 3, delta 1 subunit) | -1.01 | enough cells in well | inactive
Acr (acrosin prepropeptide) | -0.16 | enough cells in well | inactive
Or2ag12 (olfactory receptor family 2 subfamily AG member 12) | 0.52 | enough cells in well | inactive
Phykpl (5-phosphohydroxy-L-lysine phospholyase) | – | fewer than 50 cells per well; well left out of calls | inactive
5330439B14Rik (RIKEN cDNA 5330439B14 gene) | -0.4 | enough cells in well | inactive
Trim32 (tripartite motif-containing 32) | 0.26 | enough cells in well | inactive
Tnni3k (TNNI3 interacting kinase) | 1.26 | enough cells in well | inactive
Celf1 (CUGBP, Elav-like family member 1) | 0.16 | enough cells in well | inactive
Large2 (LARGE xylosyl- and glucuronyltransferase 2) | -0.63 | enough cells in well | inactive
Zfp7 (zinc finger protein 7) | -0.32 | enough cells in well | inactive
Ncoa6 (nuclear receptor coactivator 6) | 0.42 | enough cells in well | inactive
Trpc7 | -0.77 | enough cells in well | inactive
Itm2c (integral membrane protein 2C) | 0.46 | enough cells in well | inactive
Calcr (calcitonin receptor) | -0.14 | enough cells in well | inactive
Txn2 (thioredoxin 2) | 0.54 | enough cells in well | inactive
Cd53 (CD53 antigen) | 0.04 | enough cells in well | inactive
Mgat4a (mannoside acetylglucosaminyltransferase 4, isoenzyme A) | 1.42 | enough cells in well | inactive
Or2y15 (olfactory receptor family 2 subfamily Y member 15) | -0.76 | enough cells in well | inactive
Dkk2 (dickkopf WNT signaling pathway inhibitor 2) | 0.28 | enough cells in well | inactive
Nptn (neuroplastin) | 1.24 | enough cells in well | inactive
Abcb4 (ATP-binding cassette, sub-family B member 4) | 1.58 | enough cells in well | inactive
Or51h5 (olfactory receptor family 51 subfamily H member 5) | – | fewer than 50 cells per well; well left out of calls | inactive
A730045E13Rik (RIKEN cDNA A730045E13 gene) | 1.16 | enough cells in well | inactive
Spidr (scaffolding protein involved in DNA repair) | – | fewer than 50 cells per well; well left out of calls | inactive
Iqcf4 (IQ motif containing F4) | 1.17 | enough cells in well | inactive
Vapb | 3.46 | enough cells in well | active
Faim (Fas apoptotic inhibitory molecule) | 0.78 | enough cells in well | inactive
Nlrp5 (NLR family, pyrin domain containing 5) | -0.79 | enough cells in well | inactive
AF085738 (retired record) | -0.88 | enough cells in well | inactive
Or1e23 (olfactory receptor family 1 subfamily E member 23) | 0.16 | enough cells in well | inactive
Ccdc174 (coiled-coil domain containing 174) | 0.4 | enough cells in well | inactive
Sgo1 (shugoshin 1) | – | fewer than 50 cells per well; well left out of calls | inactive
Wrnip1 (Werner helicase interacting protein 1) | -0.57 | enough cells in well | inactive
H2aj (H2J.A histone) | -0.52 | enough cells in well | inactive
